One assay deals with T1, FLAG-RNF144A (human) (UniProt P50876).
T1 sequence: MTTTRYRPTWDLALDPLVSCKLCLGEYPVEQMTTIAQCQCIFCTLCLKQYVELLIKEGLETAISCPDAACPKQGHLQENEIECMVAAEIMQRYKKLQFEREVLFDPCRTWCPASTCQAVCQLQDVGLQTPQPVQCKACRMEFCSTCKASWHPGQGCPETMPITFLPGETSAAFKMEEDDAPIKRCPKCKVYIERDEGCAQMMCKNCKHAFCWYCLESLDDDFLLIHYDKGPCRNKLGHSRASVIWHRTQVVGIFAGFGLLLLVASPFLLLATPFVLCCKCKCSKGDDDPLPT
Kind of assay: co-IP.

Chains of the proteins cited; added tags and fusions are not shown. Residues count along the entry.
UniProt P14784, residues 27-551: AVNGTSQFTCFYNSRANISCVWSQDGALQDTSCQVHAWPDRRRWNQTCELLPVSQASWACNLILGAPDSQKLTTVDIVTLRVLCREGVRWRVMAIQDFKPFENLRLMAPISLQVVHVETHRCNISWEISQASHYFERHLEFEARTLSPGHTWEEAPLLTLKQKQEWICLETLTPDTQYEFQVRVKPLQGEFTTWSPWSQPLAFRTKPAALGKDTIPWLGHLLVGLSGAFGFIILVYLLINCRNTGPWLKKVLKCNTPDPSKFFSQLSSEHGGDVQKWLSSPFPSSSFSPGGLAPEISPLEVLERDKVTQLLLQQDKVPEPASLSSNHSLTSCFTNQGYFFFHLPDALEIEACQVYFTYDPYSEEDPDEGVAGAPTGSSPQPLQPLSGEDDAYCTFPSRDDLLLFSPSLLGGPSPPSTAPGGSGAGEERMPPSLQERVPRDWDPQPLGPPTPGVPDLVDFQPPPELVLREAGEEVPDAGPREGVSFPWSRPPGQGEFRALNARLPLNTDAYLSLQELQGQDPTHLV
UniProt P42229: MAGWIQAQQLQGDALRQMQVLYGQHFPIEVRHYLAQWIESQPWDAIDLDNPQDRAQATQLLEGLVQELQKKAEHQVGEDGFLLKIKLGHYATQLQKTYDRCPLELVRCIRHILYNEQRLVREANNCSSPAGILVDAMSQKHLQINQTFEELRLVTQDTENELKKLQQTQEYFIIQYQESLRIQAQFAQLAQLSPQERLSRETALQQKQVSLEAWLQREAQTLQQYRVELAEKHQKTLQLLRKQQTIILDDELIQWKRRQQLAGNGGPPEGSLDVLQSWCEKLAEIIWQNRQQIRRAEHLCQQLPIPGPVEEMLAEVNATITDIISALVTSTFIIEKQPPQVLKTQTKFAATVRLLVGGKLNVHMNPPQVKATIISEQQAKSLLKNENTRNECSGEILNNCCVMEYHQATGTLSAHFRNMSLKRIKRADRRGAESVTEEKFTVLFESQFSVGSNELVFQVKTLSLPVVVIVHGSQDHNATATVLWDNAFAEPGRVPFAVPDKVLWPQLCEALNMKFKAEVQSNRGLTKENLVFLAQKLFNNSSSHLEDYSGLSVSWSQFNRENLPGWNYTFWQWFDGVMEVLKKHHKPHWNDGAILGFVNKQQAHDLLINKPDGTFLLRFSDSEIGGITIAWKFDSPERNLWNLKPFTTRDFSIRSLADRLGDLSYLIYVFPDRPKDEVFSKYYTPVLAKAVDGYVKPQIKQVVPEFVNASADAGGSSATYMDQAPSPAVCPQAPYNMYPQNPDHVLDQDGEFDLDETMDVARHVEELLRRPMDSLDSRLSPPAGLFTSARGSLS
UniProt P51692: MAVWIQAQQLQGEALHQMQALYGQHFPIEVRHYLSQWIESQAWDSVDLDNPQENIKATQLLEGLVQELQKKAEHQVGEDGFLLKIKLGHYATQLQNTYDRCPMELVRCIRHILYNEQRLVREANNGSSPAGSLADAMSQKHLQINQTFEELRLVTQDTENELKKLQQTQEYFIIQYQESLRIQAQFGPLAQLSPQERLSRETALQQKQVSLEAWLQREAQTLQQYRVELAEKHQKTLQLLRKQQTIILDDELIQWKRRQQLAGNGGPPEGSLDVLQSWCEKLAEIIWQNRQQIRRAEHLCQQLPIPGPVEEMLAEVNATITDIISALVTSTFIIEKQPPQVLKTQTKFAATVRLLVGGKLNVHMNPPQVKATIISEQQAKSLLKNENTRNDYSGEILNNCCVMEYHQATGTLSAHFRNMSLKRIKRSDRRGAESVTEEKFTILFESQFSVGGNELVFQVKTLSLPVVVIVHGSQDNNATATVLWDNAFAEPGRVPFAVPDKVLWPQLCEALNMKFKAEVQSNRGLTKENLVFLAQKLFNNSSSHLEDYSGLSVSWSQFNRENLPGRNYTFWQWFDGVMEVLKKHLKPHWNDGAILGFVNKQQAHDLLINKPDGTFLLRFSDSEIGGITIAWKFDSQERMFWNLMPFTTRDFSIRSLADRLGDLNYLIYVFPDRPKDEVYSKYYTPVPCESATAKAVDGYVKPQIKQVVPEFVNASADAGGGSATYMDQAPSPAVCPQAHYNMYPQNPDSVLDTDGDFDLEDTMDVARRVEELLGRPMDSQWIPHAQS

In a further assay the target is IL-2Rβ (UniProt P14784). Kind of assay: co-IP.

These are yes or no findings as the source states them, for the method shown. In cells and extracts the contact can be indirect. Some entries that bind do so weakly or less than the wild type. Tags and fused reporters may be left off the sequences shown.

As for “IL-2Rβ (from UniProt P14784 27-551) (receptor)”, the binding entry in the assay with FLAG-RNF144A (human) was “binds”. Regarding “RAF1-GFP (from UniProt P04049 1-648) (enzyme)”, in the assay with FLAG-RNF144A (human), the binding entry is “binds”. Same read-out and setting: the result for STAT5A (from UniProt P42229 1-794) reads “binds”; that for STAT5B (from UniProt P51692 1-787), “binds”.

B1: FLAG-RNF144A (enzyme, UniProt P50876 1-292)
chain: MTTTRYRPTWDLALDPLVSCKLCLGEYPVEQMTTIAQCQCIFCTLCLKQYVELLIKEGLETAISCPDAACPKQGHLQENEIECMVAAEIMQRYKKLQFEREVLFDPCRTWCPASTCQAVCQLQDVGLQTPQPVQCKACRMEFCSTCKASWHPGQGCPETMPITFLPGETSAAFKMEEDDAPIKRCPKCKVYIERDEGCAQMMCKNCKHAFCWYCLESLDDDFLLIHYDKGPCRNKLGHSRASVIWHRTQVVGIFAGFGLLLLVASPFLLLATPFVLCCKCKCSKGDDDPLPT
Regarding B1, the binding entry with IL-2Rβ is reported as “binds”.

(Values after article doi:10.1101/782680.)
